The campaign covered roughly 400,000 compounds. About 13,000 (3.2%) were called active. The shares of active, inactive and inconclusive entries below differ from those in the screen. The call rests on the fitted dose curve; in most records, active means well fitted cell-killing curve with a large enough effect; inconclusive means small, poorly fitted or top-dose-only effect, or effect the other way; inactive means flat fitted curve, though single readings scatter. Potencies beside an inconclusive call are fits to weak or partial responses and may not hold up.
assay: qHTS assay for MDR1-selective chemotherapeutics: Primary screen using the drug-selected MDR subline cells KB-V1; conditions: KB-V1 MDR cells viability, CellTiter-Glo, 72 h; activity change, negative = cytotoxicity: at 46.1 µM (top of the series); further: nearly all actives have a fitted effect of over 60% in size
In short: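 Cells of the MDR subline KB-V1 are plated, dosed with compound at multiple concentrations, and incubated 72 h at 37 degrees C; CellTiter-Glo is then added and luminescence read after 10 min.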
On the % scale 0 is the no-effect control and ±100 the full control effect; potency means the concentration at half of the fitted maximal effect.

Row | SMILES | activity change, negative = cytotoxicity | Potency
1 | CC(C)[C@H](NC(=O)OC(C)(C)C)c1cc(C(=O)N2CCOCC2)c(N)s1 | inactive: -4.66% | –
2 | Cc1ccc(OS(=O)Nc2cccc3nccnc23)cc1 (centres undefined) | – | inconclusive: 14.6 µM [cytotoxic, single point]
3 | O=C(NCc1ccc(F)cc1)c1cc(C2CCCCN2C(=O)c2ccc3c(c2)CCO3)on1 (centres undefined) | – | inconclusive: 29.1 µM [cytotoxic, single point]
4 | Cc1[nH]n(-c2ccccc2)c(=O)c1N=Nc1cccc(S(=O)(=O)N2CCOCC2)c1 | – | inconclusive: 0.0326 µM [rising, full curve]
5 | COc1cccc(CN(C)C(=O)c2ccccc2Sc2ccccc2C#N)c1OC | inactive: -18.1% | –
6 | COc1ccc(C(=O)n2nc(-c3ccccc3)nc2N)cc1OC | – | inconclusive: 18.4 µM [rising, partial curve]
7 | Nc1c(Cl)ncnc1NCCO | – | inconclusive: 0.184 µM [rising, full curve]
8 | OC(COCc1ccccc1)COCc1ccccc1 | – | inconclusive: 29.1 µM [rising, single point]
9 | CC(Sc1nnc(CC(=O)Nc2ccccc2F)n1C)C(=O)Nc1nccs1 (centres undefined) | inactive: 1.38% | –
10 | CSc1ccc(Cl)c(C(=O)NCCOc2cc(C(C)C)ccc2C)c1 | – | inconclusive: 20.6 µM [cytotoxic, partial curve, poor fit]
11 | CCN(C(=O)c1ccc(S(C)(=O)=O)cc1)C12CC3CC(CC(C3)C1)C2 | – | inconclusive: 11.6 µM [cytotoxic, partial curve]
12 | O=C(CNC(=O)c1ccc([N+](=O)[O-])cc1)N/N=C/c1c[nH]c2ccccc12 | – | inconclusive: 20.6 µM [rising, partial curve]
13 | CCN(C(=O)COC(=O)c1cccc(S(=O)(=O)N(C)C)c1)c1c(N)n(Cc2ccccc2)c(=O)[nH]c1=O | inactive: -0.984% | –
14 | COc1ccc(NC(=O)CC2CCCC2)cc1S(=O)(=O)N1CCCCC1 | inactive: -6.48% | –
15 | O=C(CCN1CCN(c2ccccc2)CC1)N/N=C/c1ccc(O)c(O)c1O | – | inconclusive: 29.1 µM [rising, single point]
16 | COc1ccc(F)cc1CSc1nnnn1-c1ccc(O)cc1 | – | active: 16.4 µM
17 | NS(=O)(=O)c1ccc(CCNCc2cc(Cl)ccc2OCc2ccccc2)cc1 | inactive: -37.2% | –
18 | CC1c2nc3ccccc3n2C(CC(=O)NCc2ccccn2)C(=O)N1Cc1ccccc1 (centres undefined) | – | inconclusive: 29.1 µM [cytotoxic, single point]
19 | O=[N+]([O-])c1cc(C(F)(F)F)cc([N+](=O)[O-])c1N1CCN(S(=O)(=O)c2ccccc2)CC1 | inactive: 14.7% | –
20 | CCOC(=O)C1(Cc2cccc(F)c2)CCN(Cc2cnc(C)s2)CC1 | – | inconclusive: 16.4 µM [cytotoxic, single point]
21 | NC(=O)C1CCCN(C(=O)CCC(=O)c2cccs2)C1 (centres undefined) | inactive: 0% | –
22 | COc1cc(NC(=O)c2ccccc2)ccc1NC(=O)c1cc2ccccc2o1 | – | inactive
23 | Cc1cccc2cc(CN(C(=O)c3cccs3)c3ccccc3)c(=O)[nH]c12 | – | active: 23.1 µM
24 | COc1ccc(NC(=O)C(OC(=O)c2cnc(C)cn2)c2ccccc2)cc1Cl (centres undefined) | – | inconclusive: 0.411 µM [rising, full curve, poor fit]
25 | O=C(Nc1nc2ccccc2n1CCN1CCCC1)c1ccc(Cl)cc1 | – | inconclusive: 20.6 µM [cytotoxic, partial curve]

Row | SMILES | activity change, negative = cytotoxicity | Potency
26 | O=C(NNC(=S)NC(=O)c1cccnc1)c1ccc(Cl)cc1 | – | inconclusive: 32.6 µM [cytotoxic, partial curve, poor fit]
27 | COc1ccc(CCNC(=O)COc2ccc(-c3ccc(C)cc3)cc2)cc1OC | – | inconclusive: 13 µM [cytotoxic, partial curve]
28 | CCc1ccc(OCC(=O)Nc2ccncc2)c(Br)c1 | – | active: 9.2 µM
29 | Oc1ccccc1-c1cc(-c2cccc(F)c2)n[nH]1 | – | inconclusive: 10.3 µM [cytotoxic, partial curve]
30 | COc1ccc(C(C)=O)cc1CN(c1ccccc1OC)S(=O)(=O)c1cccs1 | inactive: -13.8% | –
31 | O=C(NNC1=C(C(=O)C(F)(F)F)CCC1)c1ccccc1O | inactive: 0% | –
32 | CCCCc1cc(=O)oc2cc(OCC(=O)N3C[C@H]4C[C@@H](C3)c3cccc(=O)n3C4)ccc12 | inactive: -9.15% | –
33 | CCN1CCN(c2nc(NCCO)c3ccccc3n2)CC1 | inactive: 3.03% | –
34 | Cc1cc(=O)oc2c1ccc1oc(/C(=N/O)c3ccccc3)c(C)c12 | – | active: 20.6 µM
35 | COc1ccccc1NS(=O)(=O)c1ccc(C(=O)OCC(=O)NCc2ccco2)cc1 | – | inconclusive: 23.1 µM [rising, partial curve, poor fit]
36 | CCN1C(=O)[C@@H]2[C@@H](c3ccc(-c4ccc(F)cc4)cc3)N3CCCC[C@@]3(C(=O)OC)[C@@H]2C1=O | – | inconclusive: 20.6 µM [cytotoxic, single point]
37 | CNc1snc(C)c1C(=O)OCC(=O)Nc1ccc(C)cc1F | – | active: 11.6 µM
38 | Cc1cccnc1Nc1nc(-c2ccc(O)cc2O)cs1 | – | inconclusive: 18.4 µM [cytotoxic, partial curve]
39 | COc1ccc(C(=O)N(C)C2CCCc3ccccc32)cc1OC1CCN(C(C)C)CC1 (centres undefined) | – | inconclusive: 29.1 µM [cytotoxic, single point]
40 | COc1ccc2cnnc(SCC(=O)Nc3ccc(C(=O)O)cc3)c2c1OC | – | inconclusive: 29.1 µM [rising, single point]
41 | CC(C)[C@H](NC(=O)[C@@H]1Cc2ccccc2CN1C(=O)OC(C)(C)C)C(=O)NCc1ccco1 | – | inconclusive: 2.91 µM [cytotoxic, partial curve]
42 | CN(C)C(=O)COc1ccccc1C(=O)OCC(=O)N(CCC#N)c1ccccc1 | – | inconclusive: 18.4 µM [rising, single point]
43 | c1ccc(-c2nc(N3CCCCC3)nc3ccccc23)cc1 | inactive: 9.21% | –
44 | c1ccc(CSc2nnc(-c3c[nH]c4ccccc34)o2)cc1 | – | inconclusive: 25.9 µM [cytotoxic, single point]
45 | Cc1c(C(=O)NCc2ccc3c(c2)OCO3)oc2ccc(Br)cc12 | – | inconclusive: 29.1 µM [cytotoxic, single point]
46 | CCOC(=O)C1CCCN(C(=O)c2ccc(NS(=O)(=O)c3ccc4[nH]c(=O)[nH]c4c3)cc2)C1 (centres undefined) | inactive: -1.71% | –
47 | Cn1cc(-c2coc3c(C(=O)NCc4cccc(Cl)c4)cccc23)cn1 | inactive: -21.5% | –
48 | Cn1c(-c2ccc(CN3CCCCC3)o2)nc2ccccc21 | inactive: -13.7% | –
49 | CNc1ccc(Br)cc(C(=O)/C=C/c2ccc3c(c2)OCO3)c1=O | – | inconclusive: 29.1 µM [cytotoxic, single point]
50 | O=c1c2ccccc2nc2ccc(NCc3ccco3)nn12 | – | inconclusive: 16.4 µM [cytotoxic, partial curve]

Rewritten in markdown: entries from further up

| Row | SMILES | activity change, negative = cytotoxicity | Potency |
| --- | --- | --- | --- |
| 26 | O=C(NNC(=S)NC(=O)c1cccnc1)c1ccc(Cl)cc1 | – | inconclusive: 32.6 µM [cytotoxic, partial curve, poor fit] |
| 27 | COc1ccc(CCNC(=O)COc2ccc(-c3ccc(C)cc3)cc2)cc1OC | – | inconclusive: 13 µM [cytotoxic, partial curve] |
| 28 | CCc1ccc(OCC(=O)Nc2ccncc2)c(Br)c1 | – | active: 9.2 µM |
| 29 | Oc1ccccc1-c1cc(-c2cccc(F)c2)n[nH]1 | – | inconclusive: 10.3 µM [cytotoxic, partial curve] |
| 30 | COc1ccc(C(C)=O)cc1CN(c1ccccc1OC)S(=O)(=O)c1cccs1 | inactive: -13.8% | – |
| 31 | O=C(NNC1=C(C(=O)C(F)(F)F)CCC1)c1ccccc1O | inactive: 0% | – |
| 32 | CCCCc1cc(=O)oc2cc(OCC(=O)N3C[C@H]4C[C@@H](C3)c3cccc(=O)n3C4)ccc12 | inactive: -9.15% | – |
| 33 | CCN1CCN(c2nc(NCCO)c3ccccc3n2)CC1 | inactive: 3.03% | – |
| 34 | Cc1cc(=O)oc2c1ccc1oc(/C(=N/O)c3ccccc3)c(C)c12 | – | active: 20.6 µM |
| 35 | COc1ccccc1NS(=O)(=O)c1ccc(C(=O)OCC(=O)NCc2ccco2)cc1 | – | inconclusive: 23.1 µM [rising, partial curve, poor fit] |
| 36 | CCN1C(=O)[C@@H]2[C@@H](c3ccc(-c4ccc(F)cc4)cc3)N3CCCC[C@@]3(C(=O)OC)[C@@H]2C1=O | – | inconclusive: 20.6 µM [cytotoxic, single point] |
| 37 | CNc1snc(C)c1C(=O)OCC(=O)Nc1ccc(C)cc1F | – | active: 11.6 µM |
| 38 | Cc1cccnc1Nc1nc(-c2ccc(O)cc2O)cs1 | – | inconclusive: 18.4 µM [cytotoxic, partial curve] |
| 39 | COc1ccc(C(=O)N(C)C2CCCc3ccccc32)cc1OC1CCN(C(C)C)CC1 (centres undefined) | – | inconclusive: 29.1 µM [cytotoxic, single point] |
| 40 | COc1ccc2cnnc(SCC(=O)Nc3ccc(C(=O)O)cc3)c2c1OC | – | inconclusive: 29.1 µM [rising, single point] |
| 41 | CC(C)[C@H](NC(=O)[C@@H]1Cc2ccccc2CN1C(=O)OC(C)(C)C)C(=O)NCc1ccco1 | – | inconclusive: 2.91 µM [cytotoxic, partial curve] |

(list continues)

Row | SMILES | activity change, negative = cytotoxicity | Potency
51 | CC[C@H](C)[C@@H](CO)NC(=O)[C@H]1O[C@@H](n2ccc(=O)[nH]c2=O)[C@H](O)[C@@H]1O | inactive: 0% | –
52 | CN(C)c1ccc(C=Nc2ccc(/C=C3\C=Cc4ccccc43)cc2)cc1 | inactive: 25.6% | –
53 | O=C(Nc1ccc(-c2csc(Nc3cccc(C(F)(F)F)c3)n2)cc1)c1ccccc1 | inactive: -12.4% | –
54 | O=C1C=CC(O)(c2cc(=O)c3c(O)cc(O)cc3o2)C=C1 | – | active: 5.8 µM
55 | Cn1c(=O)c2cc(S(=O)(=O)NCCC(=O)NCCC3=CCCCC3)ccc2n(C)c1=O | inconclusive: -41% | –
56 | COc1cccc(NC(=O)CSc2nc3ccccc3c(=O)n2CCCC(=O)N2CCCC2)c1 | – | active: 2.59 µM
57 | Cc1cc(C)c(NC(=S)N(CCN(C)C)Cc2cccs2)c(C)c1 | – | inconclusive: 10.3 µM [cytotoxic, partial curve, poor fit]
58 | CCCCN([C@H](CO)C(C)C)S(=O)(=O)c1ccccc1Br | inconclusive: -13.7% | –
59 | COc1ccc(C(C(=O)NC2CCCCC2)N(C(=O)CCl)c2cccc(Cl)c2)cc1 (centres undefined) | – | active: 16.4 µM
60 | CN(CC(=O)Nc1ccc(Cl)c(Cl)c1)C(=O)C12CC3CC(CC(C3)C1)C2 | – | inconclusive: 9.2 µM [cytotoxic, partial curve]
61 | Cc1c(C(=O)NCc2ccccc2C(F)(F)F)sc(=O)n1Cc1ccc2ccccc2c1 | – | inconclusive: 29.1 µM [cytotoxic, single point]
62 | CCc1cc2c(=O)c(-c3nc4ccccc4[nH]3)coc2c(CN2CCCCC2)c1O | inactive: -4.14% | –
63 | Cc1nnc2sc(-c3cccc4ccccc34)nn12 | – | active: 5.17 µM
64 | Nn1c(SCC(=O)Nc2ccccc2Br)nnc1-c1ccco1 | inactive: 1.41% | –
65 | CSCCC(C(=O)NCc1ccccc1)n1c(Cc2cc(F)cc(F)c2)nc2ccccc21 (centres undefined) | – | inconclusive: 4.11 µM [cytotoxic, full curve]
66 | COCCNC(=O)C1CCCN(C(=O)Cc2ccc(F)cc2)CC1 (centres undefined) | inactive: 3.41% | –
67 | N#C/C(=C\c1cccc([N+](=O)[O-])c1)c1nnc2n1CCCCC2 | inactive: 13% | –
68 | O=C(O)C1=NN(c2ccccc2)C(=O)CC1 | – | inconclusive: 20.6 µM [rising, single point]
69 | COc1ccc(OCCN(C)CC(=O)Nc2c(C)cccc2C)cc1 | inactive: -21% | –
70 | COc1ccc(Oc2c(Cl)cnn(-c3ccc(Cl)c(Cl)c3)c2=O)cc1 | – | inconclusive: 20.6 µM [cytotoxic, single point]
71 | CC(C)(C)c1ccc(OCC(O)CN2CCCC2)cc1 (centres undefined) | inactive: -2.98% | –
72 | O=C(C1=C[C@H](C2CCCCC2)C[C@H](OCCCCO)O1)N1CCN(Cc2ccccc2)CC1 | inactive: 3.79% | –
73 | CSc1ccc(CN(C)C(C)C(=O)NCc2ccccc2)cc1 (centres undefined) | – | inconclusive: 29.1 µM [cytotoxic, single point]
74 | C=CCNC(=O)NC(=O)COC(=O)c1ccccc1Sc1ccc(C(F)(F)F)cc1[N+](=O)[O-] | – | inconclusive: 9.2 µM [cytotoxic, partial curve]

Reference: PubChem BioAssay AID1347076 (National Center for Advancing Translational Sciences (NCATS), 2019)
